Values quoted from earlier work as cited in patent US20030008903A1, “R-lansoprazole compositions and methods” (Sepracor Inc., priority 1998, published 2003).
At least one read-out could not be matched to a standard name with certainty.

Settings: humans; cited from earlier work

Cc1c(OCC(F)(F)F)ccnc1C[S+]([O-])c1nc2ccccc2[nH]1 (racemic) [racemic lansoprazole, 2-[3-methyl-4-(2,2,2-trifluoroethoxy)pyrid-2-yl]methylsulfinyl-benzimidazole]
Cmax (time at which it occurs): about 1.7 hours
